Experimental data taken from paper PMC7607909.

Biological target: mature Arabidopsis Atp11 fused to the bait vector (BD-Atp11) (Arabidopsis thaliana)
Experiment: two-hybrid; Matchmaker Gold Yeast Two-hybrid System (Clontech); bait in pGBKT7, prey in pGADT7, yeast strain Y2H Gold; growth on SD/-Leu/-Trp/-His/-ade/X-a-Gal medium, 10- to 10,000-fold dilutions

binding: no binding
B1: PAB, chloroplast ATP synthase assembly factor (yeast two-hybrid fusion) (protein, UniProt Q94JY0 1-330)
chain: MGSISMHITPSTALPIRHFRARVSCCSSGHVSFIKDVAATEPPMHLHHLLKVLQTRGETIISPGAKQGLIPLAIPLSKNSSGSVTALLRWPTAPPGMDMPVVEVWRSGVRLIARNVDEYIHRILVEEDAQELTELYRASGEAGEKLYEKGAFAESEIDNLDVYVLKKVGLFPDLLERKVLRHFDEGDHVSAMVTGEFYTKKDLFPGFGRPFVYYANILQKVGRNVEAKDAARVALRSPWWTLGCPYEEVASIAQWEDEQIEFIREKVSDEGRFEDLHKGKAPIQVALDVAAFLLDLASIEGTWSESLNHIAKCYEEAGLHHISNFVLYTD

No constants are given. Whether binding was seen depends on the method and setting. Sequences can lack the tags named with a protein.
